Test results: patent US7947715B2, “Isoxazoline compound and pesticide” (Nissan Chemical Industries, Ltd., priority 2006, dated 2011)
Some of these results come from one statement about several compounds together. At least one structure is not confirmed: it was looked up by name or label, or the drawing left a doubt.

Tested on: cabbage moth (Plutella xylostella)
Experiment: Insecticidal test against cabbage moth (leaf dip)
Format: in vivo
Conditions: second instar larva, after 6 days

SMILES	insecticidal rate (rate of dead insects) (10 ppm (**)) [%]	further results
O=C(NCc1ccc(C2=NOC(c3cc(Cl)cc(Cl)c3)(C(F)(F)F)C2)cc1Cl)C1(c2ccccc2)CC1 (racemic) [2-075]		insecticidal rate (rate of dead insects) (500 ppm): ≥ 80%
O=C(NCc1ccc(C2=NOC(c3cc(Cl)cc(Cl)c3)(C(F)(F)F)C2)cc1Cl)c1ccc(Cl)cc1 (racemic) [2-076]		insecticidal rate (rate of dead insects) (100 ppm (*)): ≥ 80%
O=C(NCc1ccc(C2=NOC(c3cc(Cl)cc(Cl)c3)(C(F)(F)F)C2)cc1Cl)c1ccc(C(F)(F)F)cc1 (racemic) [2-077]		insecticidal rate (rate of dead insects) (100 ppm (*)): ≥ 80%
O=C(NCc1ccc(C2=NOC(c3cc(Cl)cc(Cl)c3)(C(F)(F)F)C2)cc1Cl)c1ccc(Cl)cc1Cl (racemic) [2-078]		insecticidal rate (rate of dead insects) (100 ppm (*)): ≥ 80%
O=C(NCc1ccc(C2=NOC(c3cc(Cl)cc(C(F)(F)F)c3)(C(F)(F)F)C2)cc1Cl)C1CC1 (racemic) [2-080]	≥ 80	
O=C(NCc1ccc(C2=NOC(c3cc(C(F)(F)F)cc(C(F)(F)F)c3)(C(F)(F)F)C2)cc1Cl)C1CC1 (racemic) [2-081]		insecticidal rate (rate of dead insects) (100 ppm (*)): ≥ 80%
O=C(NCc1ccc(C2=NOC(c3cc(Cl)c(F)c(Cl)c3)(C(F)(F)F)C2)cc1Cl)C1CC1 (racemic) [2-082]	≥ 80	
NCC(=O)NCc1ccc(C2=NOC(c3cc(Cl)cc(Cl)c3)(C(F)(F)F)C2)cc1Cl (racemic) [2-089]		insecticidal rate (rate of dead insects) (500 ppm): ≥ 80%
O=C(CNC(=O)C1CC1)NCc1ccc(C2=NOC(c3cc(Cl)cc(Cl)c3)(C(F)(F)F)C2)cc1Cl (racemic) [2-090]		insecticidal rate (rate of dead insects) (100 ppm (*)): ≥ 80%
CC(C)(C)OC(=O)NCC(=O)NCc1ccc(C2=NOC(c3cc(Cl)cc(Cl)c3)(C(F)(F)F)C2)cc1Cl (racemic) [2-091]		insecticidal rate (rate of dead insects) (500 ppm): ≥ 80%
CON=CC(=O)NCc1ccc(C2=NOC(c3cc(Cl)cc(Cl)c3)(C(F)(F)F)C2)cc1Cl (racemic) [2-092]	≥ 80	
CC1(C(=O)NCc2ccc(C3=NOC(c4cc(Cl)c(Cl)c(Cl)c4)(C(F)(F)F)C3)cc2Cl)CC1 (racemic) [2-156]	≥ 80	
O=C(CBr)NCc1ccc(C2=NOC(c3cc(Cl)cc(Cl)c3)(C(F)(F)F)C2)cc1Cl (racemic) [2-158]		insecticidal rate (rate of dead insects) (500 ppm): ≥ 80%
O=C(CBr)NCc1ccc(C2=NOC(c3cc(Cl)c(Cl)c(Cl)c3)(C(F)(F)F)C2)cc1Cl (racemic) [2-159]		insecticidal rate (rate of dead insects) (500 ppm): ≥ 80%
O=C(NCc1ccc(C2=NOC(c3cc(Cl)c(Cl)c(Cl)c3)(C(F)(F)F)C2)cc1Cl)C(F)(F)F (racemic) [2-160]	≥ 80	
O=C(NCc1ccc(C2=NOC(c3cc(Cl)c(Cl)c(Cl)c3)(C(F)(F)F)C2)cc1Br)C(F)(F)F (racemic) [2-161]	≥ 80	
O=C(NCc1ccc(C2=NOC(c3cc(Cl)c(Cl)c(Cl)c3)(C(F)(F)F)C2)cc1Cl)C(F)(F)Cl (racemic) [2-162]	≥ 80	
O=C(CCCl)NCc1ccc(C2=NOC(c3cc(Cl)c(Cl)c(Cl)c3)(C(F)(F)F)C2)cc1Cl (racemic) [2-164]	≥ 80	
O=C(CC(F)(F)F)NCc1ccc(C2=NOC(c3cc(Cl)c(Cl)c(Cl)c3)(C(F)(F)F)C2)cc1Cl (racemic) [2-165]	≥ 80	
O=C(CC(F)(F)F)NCc1ccc(C2=NOC(c3cc(Cl)c(Cl)c(Cl)c3)(C(F)(F)F)C2)cc1Br (racemic) [2-166]	≥ 80	

SMILES	insecticidal rate (rate of dead insects) (10 ppm (**)) [%]	further results
O=C(CC(F)(F)F)NCc1ccc(C2=NOC(c3cc(Cl)c(Cl)c(Cl)c3)(C(F)(F)F)C2)cc1[N+](=O)[O-] (racemic) [2-167]	≥ 80	
O=C(NCc1ccc(C2=NOC(c3cc(Cl)c(Cl)c(Cl)c3)(C(F)(F)F)C2)cc1Cl)C(F)(F)C(F)(F)F (racemic) [2-170]		insecticidal rate (rate of dead insects) (100 ppm (*)): ≥ 80%
O=C(NCc1ccc(C2=NOC(c3cc(Cl)c(Cl)c(Cl)c3)(C(F)(F)F)C2)cc1Br)C(F)(F)C(F)(F)F (racemic) [2-171]	≥ 80	
O=C(CCC(F)(F)F)NCc1ccc(C2=NOC(c3cc(Cl)c(Cl)c(Cl)c3)(C(F)(F)F)C2)cc1Cl (racemic) [2-172]	≥ 80	
O=C(COCC(F)(F)F)NCc1ccc(C2=NOC(c3cc(Cl)c(Cl)c(Cl)c3)(C(F)(F)F)C2)cc1Cl (racemic) [2-175]	≥ 80	
C#CCOCC(=O)NCc1ccc(C2=NOC(c3cc(Cl)c(Cl)c(Cl)c3)(C(F)(F)F)C2)cc1Cl (racemic) [2-176]		insecticidal rate (rate of dead insects) (100 ppm (*)): ≥ 80%
CS(=O)(=O)CC(=O)NCc1ccc(C2=NOC(c3cc(Cl)cc(Cl)c3)(C(F)(F)F)C2)cc1Br (racemic) [2-183]	≥ 80	
CCSCC(=O)NCc1ccc(C2=NOC(c3cc(Cl)cc(Cl)c3)(C(F)(F)F)C2)cc1Cl (racemic) [2-184]	≥ 80	
CCS(=O)(=O)CC(=O)NCc1ccc(C2=NOC(c3cc(Cl)cc(Cl)c3)(C(F)(F)F)C2)cc1Cl (racemic) [2-186]	≥ 80	
CNC(=O)C(=O)NCc1ccc(C2=NOC(c3cc(Cl)c(Cl)c(Cl)c3)(C(F)(F)F)C2)cc1Cl (racemic) [2-241]		insecticidal rate (rate of dead insects) (100 ppm (*)): ≥ 80%
CCNC(=O)C(=O)NCc1ccc(C2=NOC(c3cc(Cl)c(Cl)c(Cl)c3)(C(F)(F)F)C2)cc1Cl (racemic) [2-242]		insecticidal rate (rate of dead insects) (500 ppm): ≥ 80%
O=C(NCc1ccc(C2=NOC(c3cc(Cl)c(Cl)c(Cl)c3)(C(F)(F)F)C2)cc1Br)c1ccccc1Br (racemic) [2-254]	≥ 80	
Cc1ccccc1C(=O)NCc1ccc(C2=NOC(c3cc(Cl)c(Cl)c(Cl)c3)(C(F)(F)F)C2)cc1Cl (racemic) [2-255]	≥ 80	
O=C(NCc1ccc(C2=NOC(c3cc(Cl)c(Cl)c(Cl)c3)(C(F)(F)F)C2)cc1Cl)c1ccccc1C(F)(F)F (racemic) [2-256]		insecticidal rate (rate of dead insects) (100 ppm (*)): ≥ 80%
O=C(NCc1ccc(C2=NOC(c3cc(Cl)cc(Cl)c3)(C(F)(F)F)C2)cc1Cl)c1ccc(C(F)(C(F)(F)F)C(F)(F)F)cc1 (racemic) [2-257]		insecticidal rate (rate of dead insects) (500 ppm): ≥ 80%
O=C(NCc1ccc(C2=NOC(c3cc(Cl)cc(Cl)c3)(C(F)(F)F)C2)cc1Cl)c1ccc(Oc2ccccc2)cc1 (racemic) [2-258]		insecticidal rate (rate of dead insects) (500 ppm): ≥ 80%
CSc1ccccc1C(=O)NCc1ccc(C2=NOC(c3cc(Cl)c(Cl)c(Cl)c3)(C(F)(F)F)C2)cc1Cl (racemic) [2-259]	≥ 80	
CCC(=O)NCc1ccc(C2=NOC(c3cc(C(F)(F)F)cc(C(F)(F)F)c3)(C(F)(F)F)C2)cc1Br (racemic) [2-316]	≥ 80	
CCCC(=O)NCc1ccc(C2=NOC(c3cc(C(F)(F)F)cc(C(F)(F)F)c3)(C(F)(F)F)C2)cc1Br (racemic) [2-319]	≥ 80	
CC(C)C(=O)NCc1ccc(C2=NOC(c3cc(C(F)(F)F)cc(C(F)(F)F)c3)(C(F)(F)F)C2)cc1Br (racemic) [2-321]	≥ 80	

SMILES	insecticidal rate (rate of dead insects) (10 ppm (**)) [%]	further results
O=C(NCc1ccc(C2=NOC(c3cc(C(F)(F)F)cc(C(F)(F)F)c3)(C(F)(F)F)C2)cc1Br)C1CC1 (racemic) [2-324]	≥ 80	
O=C(CC1CC1)NCc1ccc(C2=NOC(c3cc(Cl)c(OC(F)F)c(Cl)c3)(C(F)(F)F)C2)cc1Cl (racemic) [2-327]	≥ 80	
O=C(CC1CC1)NCc1ccc(C2=NOC(c3cc(C(F)(F)F)cc(C(F)(F)F)c3)(C(F)(F)F)C2)cc1Br (racemic) [2-328]	≥ 80	
O=C(CNCC1CC1)NCc1ccc(C2=NOC(c3cc(Cl)c(Cl)c(Cl)c3)(C(F)(F)F)C2)cc1Cl (racemic) [2-334]		insecticidal rate (rate of dead insects) (100 ppm (*)): ≥ 80%
O=C(CNC(=O)C(F)(F)F)NCc1ccc(C2=NOC(c3cc(Cl)c(Cl)c(Cl)c3)(C(F)(F)F)C2)cc1Cl (racemic) [2-335]	≥ 80	
CN(CC(=O)NCc1ccc(C2=NOC(c3cc(Cl)c(Cl)c(Cl)c3)(C(F)(F)F)C2)cc1Cl)C(=O)C(F)(F)F (racemic) [2-336]	≥ 80	
O=C(CN(CC1CC1)C(=O)C(F)(F)F)NCc1ccc(C2=NOC(c3cc(Cl)c(Cl)c(Cl)c3)(C(F)(F)F)C2)cc1Cl (racemic) [2-337]		insecticidal rate (rate of dead insects) (100 ppm (*)): ≥ 80%
C#CCN(CC(=O)NCc1ccc(C2=NOC(c3cc(Cl)c(Cl)c(Cl)c3)(C(F)(F)F)C2)cc1Cl)C(=O)C(F)(F)F (racemic) [2-338]		insecticidal rate (rate of dead insects) (100 ppm (*)): ≥ 80%
COC(=O)N(CC(=O)NCc1ccc(C2=NOC(c3cc(Cl)c(Cl)c(Cl)c3)(C(F)(F)F)C2)cc1Cl)CC1CC1 (racemic) [2-339]		insecticidal rate (rate of dead insects) (100 ppm (*)): ≥ 80%
C#CCN(CC(=O)NCc1ccc(C2=NOC(c3cc(Cl)c(Cl)c(Cl)c3)(C(F)(F)F)C2)cc1Cl)C(=O)OC (racemic) [2-340]		insecticidal rate (rate of dead insects) (100 ppm (*)): ≥ 80%
CCOC(=O)N(C)CC(=O)NCc1ccc(C2=NOC(c3cc(Cl)c(Cl)c(Cl)c3)(C(F)(F)F)C2)cc1Cl (racemic) [2-341]		insecticidal rate (rate of dead insects) (100 ppm (*)): ≥ 80%
CCNC(=O)N(C)CC(=O)NCc1ccc(C2=NOC(c3cc(Cl)c(Cl)c(Cl)c3)(C(F)(F)F)C2)cc1Cl (racemic) [2-342]		insecticidal rate (rate of dead insects) (100 ppm (*)): ≥ 80%
CCCNC(=O)CC(=O)NCc1ccc(C2=NOC(c3cc(Cl)c(Cl)c(Cl)c3)(C(F)(F)F)C2)cc1Cl (racemic) [2-343]	≥ 80	
C#CCCC(=O)NCc1ccc(C2=NOC(c3cc(C(F)(F)F)cc(C(F)(F)F)c3)(C(F)(F)F)C2)cc1Cl (racemic) [2-344]		insecticidal rate (rate of dead insects) (100 ppm (*)): ≥ 80%
C#CCCC(=O)NCc1ccc(C2=NOC(c3cc(C(F)(F)F)cc(C(F)(F)F)c3)(C(F)(F)F)C2)cc1Br (racemic) [2-345]	≥ 80	
CN(Cc1ccc(C2=NOC(c3cc(C(F)(F)F)cc(C(F)(F)F)c3)(C(F)(F)F)C2)cc1Cl)C(=O)CC1CC1 (racemic) [7-048]	≥ 80	
CCN(Cc1ccc(C2=NOC(c3cc(C(F)(F)F)cc(C(F)(F)F)c3)(C(F)(F)F)C2)cc1Cl)C(=O)CC1CC1 (racemic) [7-049]	≥ 80	
CCCN(Cc1ccc(C2=NOC(c3cc(C(F)(F)F)cc(C(F)(F)F)c3)(C(F)(F)F)C2)cc1Cl)C(=O)CC1CC1 (racemic) [7-050]	≥ 80	
